Among the data in paper PMC7759385 are binding values, retold here.

Protein sequences, listed by entry. Tags and fused reporters are not part of them.
UniProt P52294: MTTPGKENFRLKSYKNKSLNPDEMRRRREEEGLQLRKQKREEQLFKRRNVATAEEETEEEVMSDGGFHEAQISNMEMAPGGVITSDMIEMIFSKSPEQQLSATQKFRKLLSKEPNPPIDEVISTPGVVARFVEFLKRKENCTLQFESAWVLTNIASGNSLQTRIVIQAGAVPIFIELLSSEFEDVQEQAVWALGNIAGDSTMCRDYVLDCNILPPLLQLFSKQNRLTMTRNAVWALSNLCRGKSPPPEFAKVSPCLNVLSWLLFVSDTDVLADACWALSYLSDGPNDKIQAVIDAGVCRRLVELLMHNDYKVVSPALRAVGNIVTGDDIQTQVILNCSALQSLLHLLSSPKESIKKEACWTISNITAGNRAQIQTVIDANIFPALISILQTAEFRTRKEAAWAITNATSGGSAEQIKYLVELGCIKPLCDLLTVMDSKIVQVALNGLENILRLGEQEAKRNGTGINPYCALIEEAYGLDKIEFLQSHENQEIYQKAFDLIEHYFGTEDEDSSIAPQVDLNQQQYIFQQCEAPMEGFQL
UniProt Q04206: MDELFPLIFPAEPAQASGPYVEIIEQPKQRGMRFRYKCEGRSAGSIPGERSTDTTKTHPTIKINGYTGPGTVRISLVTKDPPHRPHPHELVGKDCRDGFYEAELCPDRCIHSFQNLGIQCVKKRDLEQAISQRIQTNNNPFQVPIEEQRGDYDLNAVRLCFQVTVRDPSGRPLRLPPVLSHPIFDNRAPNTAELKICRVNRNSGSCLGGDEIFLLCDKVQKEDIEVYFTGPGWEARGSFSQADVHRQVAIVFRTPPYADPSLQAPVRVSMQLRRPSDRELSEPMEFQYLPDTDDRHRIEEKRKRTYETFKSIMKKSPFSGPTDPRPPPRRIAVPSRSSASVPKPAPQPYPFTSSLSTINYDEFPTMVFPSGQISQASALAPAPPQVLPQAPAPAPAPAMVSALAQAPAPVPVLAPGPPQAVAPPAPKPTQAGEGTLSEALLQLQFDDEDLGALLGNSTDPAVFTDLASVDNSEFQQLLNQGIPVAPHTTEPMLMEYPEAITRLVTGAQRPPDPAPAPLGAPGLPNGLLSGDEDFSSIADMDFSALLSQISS

Results are given in words; binding and its absence hold for the method and conditions named. Binding seen in cells or lysates may run through a third protein. Some results given as binding are weak or reduced against the parent protein; the word gives no strength. Where a sequence is shown, tags or fusion partners need not be part of it.

The target of the assay is Flag-tagged karyopherin alpha 1 (KPNA1) (UniProt P52294). Put plainly: co-IP; Flag-KPNA1 precipitated with anti-FLAG M2 agarose from HEK293T whole cell lysates co-expressing HA-IRF3 or HA-p65, in the presence and absence of un-tagged WT Vpr or Vpr F34I+P35N; HA detected by immunoblot; lysis 24 h after transfection in 0.5% NP-40 in PBS with protease and phosphatase inhibitors.

For the molecule “HA-tagged NF-κB p65 (from UniProt Q04206 1-551)”, the binding entry is “binds”.

B1: HA-tagged IRF3 (protein, UniProt Q14653 1-427)
chain: MGTPKPRILPWLVSQLDLGQLEGVAWVNKSRTRFRIPWKHGLRQDAQQEDFGIFQAWAEATGAYVPGRDKPDLPTWKRNFRSALNRKEGLRLAEDRSKDPHDPHKIYEFVNSGVGDFSQPDTSPDTNGGGSTSDTQEDILDELLGNMVLAPLPDPGPPSLAVAPEPCPQPLRSPSLDNPTPFPNLGPSENPLKRLLVPGEEWEFEVTAFYRGRQVFQQTISCPEGLRLVGSEVGDRTLPGWPVTLPDPGMSLTDRGVMSYVRHVLSCLGGGLALWRAGQWLWAQRLGHCHTYWAVSEELLPNSGHGPDGEVPKDKEGGVFDLGPFIVDLITFTEGSGRSPRYALWFCVGESWPQDQPWTKRLVMVKVVPTCLRALVEMARVGGASSLENTVDLHISNSHPLSLTSDQYKAYLQDLVEGMDFQGPGES
B1: the binding result was “binds”.
